Reference: the RepoRT retention time repository

Assay: HILIC, Waters ACQUITY UPLC BEH Amide, 100 × 2.1 mm, 1.7 µm; A: water + 0.125% formic acid + 10 mM ammonium formate; B: 5% water + 95% acetonitrile + 0.125% formic acid + 10 mM ammonium formate; gradient (min/%B) 0/100 2/100 7.7/70 9.5/40 10.25/30 12.75/100 17/100
Settings: stereoisomer not certain

O=C(O)C(=O)Cc1ccc(O)cc1 [4-Hydroxyphenylpyruvic acid]
LC retention time: 1.22 min
